# Laboratory results: publication PMC10136674
# Construct, isoform or probe ends are uncertain for at least one entry. Negatives hold for the conditions tested. At least one verdict rests on a figure or table, not on a statement of the authors.
# Tested on: GST-FtbZIP85 (Fagopyrum tataricum)
# Assay: EMSA
# Conditions: Thermo Scientific EMSA kit 20148; pH and temperature not stated; recombinant protein; protein details: N-terminal GST
row,Sequence,binding result
1,ATGAAACGGCCACCAGAATCTTACGTGGTCTACCGTCCGCTTCAC (double strand) [BZIP1],no binding
2,ATGAAATTGCTACTAGAATCTTATTTGTTCTACTTTCTTCTTCAC (double strand) [mBZIP1],no binding
3,CAGCACACGTGCTACCAGTCCATAATCACGTGCCTAAATCTTCCACAGC (double strand) [BZIP3],binds
4,CCGTATCTACAACAACAACGTGTATATATTAATTCTACCGTCCACACCAAA (double strand) [BZIP4],binds
5,TATATATCTAACAAGTAAATCTAAGTACAAACACCTAA (double strand) [BZIP2],no binding
6,TATATATTTAACAATTAAATATAAGTATAAACACTTAA (double strand) [mBZIP2],no binding
